Results taken from paper PMC5853561, “Affinity purification with metabolomic and proteomic analysis unravels diverse roles of nucleoside diphosphate kinases” (Journal of Experimental Botany, 2017).
Where two headings read alike, the source gives them in different places. These are yes or no findings as the source states them, for the method shown. Binding seen in cells or lysates may run through a third protein. A yes stands for co-enrichment or nearness to the bait. Other partners may have been found. Where a sequence is shown, tags or fusion partners need not be part of it.

Amino acid sequences for entries named in this document (tags omitted).
UniProt Q9LZG0: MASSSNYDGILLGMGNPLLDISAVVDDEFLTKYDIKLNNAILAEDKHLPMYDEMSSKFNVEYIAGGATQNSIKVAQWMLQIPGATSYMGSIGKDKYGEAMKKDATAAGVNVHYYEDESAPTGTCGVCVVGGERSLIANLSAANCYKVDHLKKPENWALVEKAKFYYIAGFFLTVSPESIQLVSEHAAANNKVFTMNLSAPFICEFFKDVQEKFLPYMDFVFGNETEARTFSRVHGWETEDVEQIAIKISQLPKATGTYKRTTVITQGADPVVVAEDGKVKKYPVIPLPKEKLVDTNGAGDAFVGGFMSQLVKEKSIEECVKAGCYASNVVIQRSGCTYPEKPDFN

T1: Arabidopsis thaliana nucleoside diphosphate kinase 1, TAP-tagged (Arabidopsis thaliana) (UniProt P39207)
T1 sequence: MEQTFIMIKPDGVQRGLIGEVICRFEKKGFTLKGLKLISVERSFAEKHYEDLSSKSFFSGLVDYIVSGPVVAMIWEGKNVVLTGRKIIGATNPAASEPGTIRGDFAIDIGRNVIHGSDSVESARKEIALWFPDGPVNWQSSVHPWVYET

T2: Arabidopsis thaliana nucleoside diphosphate kinase 3, TAP-tagged (Arabidopsis thaliana) (UniProt O49203)
T2 sequence: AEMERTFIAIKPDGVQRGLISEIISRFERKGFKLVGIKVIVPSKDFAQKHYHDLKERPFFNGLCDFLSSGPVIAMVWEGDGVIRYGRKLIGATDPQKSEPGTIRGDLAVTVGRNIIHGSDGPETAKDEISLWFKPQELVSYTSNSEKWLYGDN


Columns and labels:
Assay in all cases: affinity purification with mass spectrometry; TAP-tagged NDPK (lines with N- and with C-terminal tag) captured from native lysate of Arabidopsis PSB-L cell cultures on IgG Sepharose, 1 h at 4 °C; lysis buffer 0.025 M Tris-HCl pH 7.5, 0.5 M NaCl, 0.015 M MgCl2, 0.5 mM DTT; wash 0.025 M Tris-HCl pH 7.5, 0.5 M NaCl; elution with AcTEV protease; LC/MS/MS; hits absent from empty vector and blank controls and present in both N- and C-tagged samples, then filtered by subcellular localisation
[1] = molecular target: T1, Arabidopsis thaliana nucleoside diphosphate kinase 1, TAP-tagged (Arabidopsis thaliana)
[2] = molecular target: T2, Arabidopsis thaliana nucleoside diphosphate kinase 3, TAP-tagged (Arabidopsis thaliana)
[3] = molecular target: T1, Arabidopsis thaliana nucleoside diphosphate kinase 1, TAP-tagged (Arabidopsis thaliana); remark: listed apart in the source

Row | Molecule | binding [1] | binding [3] | also measured
1 | adenosine kinase 2 (from UniProt Q9LZG0 1-345) (enzyme) | binds |  | 
2 | isoform 2 of Clp protease adaptor-protein ClpF |  |  | binding [2]: binds
3 | pyruvate kinase (enzyme) | binds |  | 
4 | alkaline/neutral invertase CINV1 (enzyme, UniProt Q9LQF2 1-551) MEGVGLRAVGSHCSLSEMDDLDLTRALDKPRLKIERKRSFDERSMSELSTGYSRHDGIHDSPRGRSVLDTPLSSARNSFEPHPMMAEAWEALRRSMVFFRGQPVGTLAAVDNTTDEVLNYDQVFVRDFVPSALAFLMNGEPDIVKHFLLKTLQLQGWEKRVDRFKLGEGVMPASFKVLHDPIRETDNIVADFGESAIGRVAPVDSGFWWIILLRAYTKSTGDLTLSETPECQKGMKLILSLCLAEGFDTFPTLLCADGCSMIDRRMGVYGYPIEIQALFFMALRSALSMLKPDGDGREVIERIVKRLHALSFHMRNYFWLDHQNLNDIYRFKTEEYSHTAVNKFNVMPDSIPEWVFDFMPLRGGYFVGNVGPAHMDFRWFALGNCVSILSSLATPDQSMAIMDLLEHRWAELVGEMPLKICYPCLEGHEWRIVTGCDPKNTRWSYHNGGSWPVLLWQLTAACIKTGRPQIARRAVDLIESRLHRDCWPEYYDGKLGRYVGKQARKYQTWSIAGYLVAKMLLEDPSHIGMISLEEDKLMKPVIKRSASWPQL |  | binds | 
5 | inositol-tetrakisphosphate 1-kinase 1 (enzyme, UniProt Q9SBA5 1-319) MSDSIQERYLVGYALAAKKQHSFIQPSLIEHSRQRGIDLVKLDPTKSLLEQGKLDCIIHKLYDVYWKENLHEFREKCPGVPVIDLPEAIERLHNRVSMLEVITQLRFPVSDSERFGVPEQVVVMDSSVLSGGGALGELKFPVIAKPLDADGSAKSHKMFLIYDQEGMKILKAPIVLQEFVNHGGVIFKVYVVGDHVKCVKRRSLPDISEEKIGTSKGSLPFSQISNLTAQEDKNIEYGEDRSLEKVEMPPLSFLTDLAKAMRESMGLNLFNFDVIRDAKDANRYLIIDINYFPGYAKMPSYEPVLTEFFWDMVTKKNHV |  | binds | 
